Reference: the supplement of paper PMC11732987, “Enantioselective OTUD7B fragment discovery through chemoproteomics screening and high-throughput optimisation” (Communications Chemistry, 2025)
Some of the results follow. The data scatter; read single values as rough.

Protein sequences, listed by entry. Tags and fused reporters are not part of them. Lines headed by an entry give the natural chain unless they say otherwise; changes in a name come on top. Residues count along the entry.
UniProt Q8NCP5: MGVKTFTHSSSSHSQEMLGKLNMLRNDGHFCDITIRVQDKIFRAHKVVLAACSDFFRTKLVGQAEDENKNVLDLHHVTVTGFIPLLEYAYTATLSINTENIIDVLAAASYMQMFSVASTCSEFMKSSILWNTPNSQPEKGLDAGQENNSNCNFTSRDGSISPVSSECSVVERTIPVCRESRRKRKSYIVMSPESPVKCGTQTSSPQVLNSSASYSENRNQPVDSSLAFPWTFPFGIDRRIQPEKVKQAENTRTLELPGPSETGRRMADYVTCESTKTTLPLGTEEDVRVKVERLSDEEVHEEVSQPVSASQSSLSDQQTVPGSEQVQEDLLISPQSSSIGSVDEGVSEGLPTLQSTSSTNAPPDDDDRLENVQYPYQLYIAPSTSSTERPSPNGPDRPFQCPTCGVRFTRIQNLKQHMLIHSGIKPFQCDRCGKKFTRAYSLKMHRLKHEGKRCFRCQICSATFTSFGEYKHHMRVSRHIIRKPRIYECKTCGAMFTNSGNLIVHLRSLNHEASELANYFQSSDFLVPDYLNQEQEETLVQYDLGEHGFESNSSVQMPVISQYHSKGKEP
UniProt O15062: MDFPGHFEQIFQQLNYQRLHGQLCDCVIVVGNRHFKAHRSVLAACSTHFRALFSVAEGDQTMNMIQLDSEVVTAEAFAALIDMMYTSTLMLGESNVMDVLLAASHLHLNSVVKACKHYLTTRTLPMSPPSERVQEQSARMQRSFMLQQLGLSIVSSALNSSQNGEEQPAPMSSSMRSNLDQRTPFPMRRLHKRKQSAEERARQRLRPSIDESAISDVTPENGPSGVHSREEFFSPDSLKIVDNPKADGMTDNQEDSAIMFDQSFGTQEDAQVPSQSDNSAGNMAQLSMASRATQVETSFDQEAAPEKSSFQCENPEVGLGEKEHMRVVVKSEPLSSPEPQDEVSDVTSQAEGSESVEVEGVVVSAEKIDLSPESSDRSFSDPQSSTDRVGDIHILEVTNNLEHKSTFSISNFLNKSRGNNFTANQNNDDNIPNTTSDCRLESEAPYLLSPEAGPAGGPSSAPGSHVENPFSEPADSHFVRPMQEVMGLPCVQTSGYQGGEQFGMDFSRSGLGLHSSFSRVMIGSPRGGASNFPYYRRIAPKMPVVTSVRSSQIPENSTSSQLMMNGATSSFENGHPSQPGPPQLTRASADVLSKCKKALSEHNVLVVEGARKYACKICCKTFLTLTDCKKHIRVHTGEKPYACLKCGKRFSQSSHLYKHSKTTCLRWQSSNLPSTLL
UniProt Q96QU8: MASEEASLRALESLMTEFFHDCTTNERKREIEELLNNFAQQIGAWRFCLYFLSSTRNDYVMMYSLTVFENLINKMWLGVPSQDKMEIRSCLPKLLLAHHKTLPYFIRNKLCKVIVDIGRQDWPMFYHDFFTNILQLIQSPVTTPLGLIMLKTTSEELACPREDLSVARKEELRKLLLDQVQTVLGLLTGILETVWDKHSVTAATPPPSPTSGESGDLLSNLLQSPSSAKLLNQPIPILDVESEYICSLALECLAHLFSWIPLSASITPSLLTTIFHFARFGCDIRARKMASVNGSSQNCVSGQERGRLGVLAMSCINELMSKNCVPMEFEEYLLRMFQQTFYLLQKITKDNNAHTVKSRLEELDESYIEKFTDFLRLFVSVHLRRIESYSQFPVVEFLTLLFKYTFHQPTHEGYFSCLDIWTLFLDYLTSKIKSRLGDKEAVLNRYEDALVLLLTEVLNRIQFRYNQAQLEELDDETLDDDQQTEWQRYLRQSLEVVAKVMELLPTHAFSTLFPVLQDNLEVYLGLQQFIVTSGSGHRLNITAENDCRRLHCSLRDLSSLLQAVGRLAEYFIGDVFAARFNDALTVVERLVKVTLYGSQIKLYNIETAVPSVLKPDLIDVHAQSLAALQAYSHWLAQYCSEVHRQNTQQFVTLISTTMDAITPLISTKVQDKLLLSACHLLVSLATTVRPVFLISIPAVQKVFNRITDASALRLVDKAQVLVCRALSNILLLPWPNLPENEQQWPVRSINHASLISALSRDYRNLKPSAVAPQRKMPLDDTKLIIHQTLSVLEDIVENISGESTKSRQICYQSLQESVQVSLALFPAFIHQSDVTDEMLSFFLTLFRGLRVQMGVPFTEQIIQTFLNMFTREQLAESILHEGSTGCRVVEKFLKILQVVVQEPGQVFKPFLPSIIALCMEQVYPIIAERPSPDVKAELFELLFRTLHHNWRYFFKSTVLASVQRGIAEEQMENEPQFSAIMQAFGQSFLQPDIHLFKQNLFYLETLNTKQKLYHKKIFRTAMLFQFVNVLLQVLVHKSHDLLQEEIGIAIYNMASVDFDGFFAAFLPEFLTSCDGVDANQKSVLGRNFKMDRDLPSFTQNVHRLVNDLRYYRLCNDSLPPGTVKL
UniProt Q9ULM3, 1111-1130: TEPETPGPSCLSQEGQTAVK
UniProt Q9Y4P8: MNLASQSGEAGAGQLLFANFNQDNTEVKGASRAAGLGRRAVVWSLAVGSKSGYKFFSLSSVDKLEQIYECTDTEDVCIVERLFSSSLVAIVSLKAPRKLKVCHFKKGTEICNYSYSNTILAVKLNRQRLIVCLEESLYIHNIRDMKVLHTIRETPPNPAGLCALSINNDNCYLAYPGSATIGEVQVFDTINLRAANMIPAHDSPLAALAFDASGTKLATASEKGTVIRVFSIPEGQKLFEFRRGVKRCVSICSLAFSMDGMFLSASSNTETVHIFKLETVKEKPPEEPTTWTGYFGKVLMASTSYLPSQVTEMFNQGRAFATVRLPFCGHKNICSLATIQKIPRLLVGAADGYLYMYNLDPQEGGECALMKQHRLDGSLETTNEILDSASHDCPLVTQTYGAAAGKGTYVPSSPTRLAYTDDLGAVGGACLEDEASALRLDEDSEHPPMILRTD
UniProt Q8IWB7: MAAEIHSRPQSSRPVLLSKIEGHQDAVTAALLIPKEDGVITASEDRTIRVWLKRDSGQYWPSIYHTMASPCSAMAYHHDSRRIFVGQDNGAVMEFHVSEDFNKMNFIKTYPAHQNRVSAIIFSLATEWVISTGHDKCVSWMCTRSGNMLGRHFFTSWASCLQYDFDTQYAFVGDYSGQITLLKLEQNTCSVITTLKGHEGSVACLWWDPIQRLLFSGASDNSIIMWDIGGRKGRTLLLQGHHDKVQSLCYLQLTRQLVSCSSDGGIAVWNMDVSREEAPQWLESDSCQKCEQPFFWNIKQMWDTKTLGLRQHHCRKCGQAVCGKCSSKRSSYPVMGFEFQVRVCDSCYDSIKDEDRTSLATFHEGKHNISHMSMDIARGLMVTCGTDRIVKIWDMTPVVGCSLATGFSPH

Experiments:
[1] = compound: ClCC(=O)N[C@@H]1CCCc2ccccc12; assay: log2 mean competition ratio of IA-DTB cysteine labelling (DMSO/compound) (log2 ratio); higher = stronger cysteine engagement by compound; details: treatment time: 4 h, cell line lysate: HEK293T
Protocol: (§1)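 IA-DTB competitive cysteine chemoproteomics in HEK293T RIPA lysate. Lysates were treated with compound 29 or 30 at 50 or 200 µM for 4 h, then IA-DTB (500 µM, 1 h), trypsin-digested, NeutrAvidin-enriched and analysed by diaPASEF. Competition ratio = intensity DMSO / intensity compound (n=4 treated, n=64 DMSO); binding: mean log2 CR ≥ 1 and p ≤ 0.05 plus QC filters. Target is the cysteine site.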

[2] = compound: ClCC(=O)N[C@H]1CCCc2ccccc12; assay: as above; details: treatment time: 4 h, cell line lysate: HEK293T
Protocol: as §1

Target | log2 mean competition ratio ([1]; 50 µM) | log2 mean competition ratio ([1]; 200 µM) | log2 mean competition ratio ([2]; 50 µM) | log2 mean competition ratio ([2]; 200 µM)
VSNL1 C187 | 0.317 | -0.91 | 0.401 | -0.207
ZBTB44 C167 (UniProt Q8NCP5) | -0.164 | -0.462 | 0.0753 | 0.0642
ZBTB5 C312 (UniProt O15062) | -0.0846 | 0.243 | -0.255 | -0.0311
XPO6 C886 (UniProt Q96QU8) | -0.129 | 0.427 | -0.173 | 0.358
YEATS2 C1120 (UniProt Q9ULM3) | -0.267 | -0.0572 | -0.287 | -0.0949
WIPI2 C334 (UniProt Q9Y4P8) | 0.351 | -0.488 | -0.108 | -0.411
WDFY1 C287 (UniProt Q8IWB7) | -0.243 | -0.253 | 0.341 | -0.278
